Drawing on publication doi:10.1101/2023.08.19.553944, this text covers binding for three molecules.

Amino acid sequences for entries named in this document (tags omitted).
UniProt P26599: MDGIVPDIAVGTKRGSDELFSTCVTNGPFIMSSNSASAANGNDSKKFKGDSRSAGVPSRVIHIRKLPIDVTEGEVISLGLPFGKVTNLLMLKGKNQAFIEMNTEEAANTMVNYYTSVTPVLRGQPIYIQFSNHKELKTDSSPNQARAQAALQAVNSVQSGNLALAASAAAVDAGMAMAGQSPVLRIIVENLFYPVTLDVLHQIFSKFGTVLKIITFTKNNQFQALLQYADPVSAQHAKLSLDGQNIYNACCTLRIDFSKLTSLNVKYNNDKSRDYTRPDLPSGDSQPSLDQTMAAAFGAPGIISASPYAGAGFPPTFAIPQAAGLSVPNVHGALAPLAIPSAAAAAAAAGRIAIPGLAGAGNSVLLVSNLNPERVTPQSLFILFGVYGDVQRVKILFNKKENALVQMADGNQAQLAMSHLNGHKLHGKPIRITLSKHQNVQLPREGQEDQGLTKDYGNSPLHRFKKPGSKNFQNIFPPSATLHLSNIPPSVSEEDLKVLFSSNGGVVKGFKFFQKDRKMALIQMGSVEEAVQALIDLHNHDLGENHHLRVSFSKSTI

The target in the experiment is GST-tagged PTBP1 (Polypyrimidine Tract-Binding Protein 1, longer form) (UniProt P26599). In words: pull-down.

No constants are given. Whether binding was seen depends on the method and setting. In cells and extracts the contact can be indirect. Some binding calls cover weakened binding; strength is not graded here.

B1: Raver2 (endogenous) (protein, UniProt Q9HCJ3 1-691)
chain: MAAAAGDGGGEGGAGLGSAAGLGPGPGLRGQGPSAEAHEGAPDPMPAALHPEEVAARLQRMQRELSNRRKILVKNLPQDSNCQEVHDLLKDYDLKYCYVDRNKRTAFVTLLNGEQAQNAIQMFHQYSFRGKDLIVQLQPTDALLCITNVPISFTSEEFEELVRAYGNIERCFLVYSEVTGHSKGYGFVEYMKKDFAAKARLELLGRQLGASALFAQWMDVNLLASELIHSKCLCIDKLPSDYRDSEELLQIFSSVHKPVFCQLAQDEGSYVGGFAVVEYSTAEQAEEVQQAADGMTIKGSKVQVSFCAPGAPGRSTLAALIAAQRVMHSNQKGLLPEPNPVQIMKSLNNPAMLQVLLQPQLCGRAVKPAVLGTPHSLPHLMNPSISPAFLHLNKAHQSSVMGNTSNLFLQNLSHIPLAQQQLMKFENIHTNNKPGLLGEPPAVVLQTALGIGSVLPLKKELGHHHGEAHKTSSLIPTQTTITAGMGMLPFFPNQHIAGQAGPGHSNTQEKQPATVGMAEGNFSGSQPYLQSFPNLAAGSLLVGHHKQQQSQPKGTEISSGAASKNQTSLLGEPPKEIRLSKNPYLNLASVLPSVCLSSPASKTTLHKTGIASSILDAISQGSESQHALEKCIAYSPPFGDYAQVSSLRNEKRGSSYLISAPEGGSVECVDQHSQGTGAYYMETYLKKKRVY
Take B1: the binding entry is “binds”.

B2: CCAR1 (endogenous) (protein, UniProt Q8IX12 1-1150)
chain: MAQFGGQKNPPWATQFTATAVSQPAALGVQQPSLLGASPTIYTQQTALAAAGLTTQTPANYQLTQTAALQQQAAAAAAALQQQYSQPQQALYSVQQQLQQPQQTLLTQPAVALPTSLSLSTPQPTAQITVSYPTPRSSQQQTQPQKQRVFTGVVTKLHDTFGFVDEDVFFQLSAVKGKTPQVGDRVLVEATYNPNMPFKWNAQRIQTLPNQNQSQTQPLLKTPPAVLQPIAPQTTFGVQTQPQPQSLLQAQISAASITPLLQTQPQPLLQQPQQKAGLLQPPVRIVSQPQPARRLDPPSRFSGRNDRGDQVPNRKDDRSRERERERRRSRERSPQRKRSRERSPRRERERSPRRVRRVVPRYTVQFSKFSLDCPSCDMMELRRRYQNLYIPSDFFDAQFTWVDAFPLSRPFQLGNYCNFYVMHREVESLEKNMAILDPPDADHLYSAKVMLMASPSMEDLYHKSCALAEDPQELRDGFQHPARLVKFLVGMKGKDEAMAIGGHWSPSLDGPDPEKDPSVLIKTAIRCCKALTGIDLSVCTQWYRFAEIRYHRPEETHKGRTVPAHVETVVLFFPDVWHCLPTRSEWETLSRGYKQQLVEKLQGERKEADGEQDEEEKDDGEAKEISTPTHWSKLDPKTMKVNDLRKELESRALSSKGLKSQLIARLTKQLKVEEQKEEQKELEKSEKEEDEDDDRKSEDDKEEEERKRQEEIERQRRERRYILPDEPAIIVHPNWAAKSGKFDCSIMSLSVLLDYRLEDNKEHSFEVSLFAELFNEMLQRDFGVRIYKSLLSLPEKEDKKEKDKKSKKDERKDKKEERDDETDEPKPKRRKSGDDKDKKEDRDERKKEDKRKDDSKDDDETEEDNNQDEYDPMEAEEAEDEEDDRDEEEMTKRDDKRDINRYCKERPSKDKEKEKTQMITINRDLLMAFVYFDQSHCGYLLEKDLEEILYTLGLHLSRAQVKKLLNKVVLRESCFYRKLTDTSKDEENHEESESLQEDMLGNRLLLPTPTVKQESKDVEENVGLIVYNGAMVDVGSLLQKLEKSEKVRAEVEQKLQLLEEKTDEDEKTILNLENSNKSLSGELREVKKDLSQLQENLKISENMNLQFENQMNKTIRNLSTVMDEIHTVLKKDNVKNEDKDQKSKENGASV
On to B2, for which the binding result is listed as “binds”.

B3: Raver1 (endogenous) (protein, UniProt Q8IY67 1-606)
chain: MAADVSVTHRPPLSPKSGAEVEAGDAAERRAPEEELPPLDPEEIRKRLEHTERQFRNRRKILIRGLPGDVTNQEVHDLLSDYELKYCFVDKYKGTAFVTLLNGEQAEAAINAFHQSRLRERELSVQLQPTDALLCVANLPPSLTQQQFEELVRPFGSLERCFLVYSERTGQSKGYGFAEYMKKDSAARAKSDLLGKPLGPRTLYVHWTDAGQLTPALLHSRCLCVDRLPPGFNDVDALCRALSAVHSPTFCQLACGQDGQLKGFAVLEYETAEMAEEAQQQADGLSLGGSHLRVSFCAPGPPGRSMLAALIAAQATALNRGKGLLPEPNILQLLNNLGPSASLQLLLNPLLHGSAGGKQGLLGAPPAMPLLNGPALSTALLQLALQTQGQKKPGILGDSPLGALQPGAQPANPLLGELPAGGGLPPELPPRRGKPPPLLPSVLGPAGGDREALGLGPPAAQLTPPPAPVGLRGSGLRGPLSHFYSGSPTSYFTSGLQAGLKQSHLSKAIGSSPLGSGEGLLGLSPGPNGHSHLLKVRAGGGDMQGWEAPAPQRPLTRPALPSVSRPHWAARNAALPTCCPRPSPAQKAAMWASTPRASAATTRTPT
With B3, the binding result is listed as “binds”.
